# In PubChem BioAssay AID540256 (National Center for Advancing Translational Sciences (NCATS), 2011):
# In all, about 300,000 compounds went through this assay and about 3,700 (1.2%) were called active. This list was built around the results that the source calls inconclusive (neither active nor inactive); the mix of calls is not that of the screen. Calls follow the shape of the full dose curve; tested in HEK293 cells. A potency beside an inconclusive call is a rough fit, not a confirmed value.
# Assay: qHTS for Inhibitors of binding or entry into cells for Lassa Virus; also: nearly all actives have a fitted effect of over 50% in size
# Details: Lassa virus pseudotype entry inhibition, cell reporter; activity change, negative = inhibition: at 37.9 µM (top of the series) unless noted
# % is scaled to controls: 0 for no effect and ±100 for the full control effect; potency is read from the fitted curve at half-maximal effect.
SMILES,Potency,"activity change, negative = inhibition"
C=CCn1c(O)c(C(C)=Nc2ccc(N(C)C)cc2)c(=O)[nH]c1=O,"inconclusive: 10.3 µM [inhibitor, partial curve, poor fit]",–
CC(CNC(=O)COc1ccccc1)OC(=O)Nc1ccc(Cl)c(Cl)c1 (configuration not stated),"inconclusive: 4.47 µM [inhibitor, single point]",–
Cc1nn(S(=O)(=O)c2ccc(F)cc2)c(C)c1S(=O)(=O)N1CCCCCC1,–,inactive: 12.8% [at 46.1 µM]
COc1cc(-c2cc(OC)c3c(C)oc(C)c3c(=O)c2)ccc1OC(=O)c1cccc(C)c1,–,inactive: -18.8% [at 46.1 µM]
COC(=O)C(=Cc1ccc(-c2ccsc2C(=O)OC)o1)C(=O)OC,–,inactive: -2.36%
CN(C)/C=C/C(=O)c1ccc(N2CCN(c3ncc(C(F)(F)F)cc3Cl)CC2)cc1,"inconclusive: 28.2 µM [inhibitor, single point]",–
COc1ccc([N+](=O)[O-])cc1N(CC(O)CN1CCCC1)S(=O)(=O)c1ccc(C)cc1 (configuration not stated),"inconclusive: 7.3 µM [inhibitor, single point]",–
CCn1c(SCC(=O)Nc2ccc(N(C)C)cc2)nnc1C1CC1,–,inactive: -1.94%
CCCNC(=O)COC(=O)c1ccccc1OCC(=O)Nc1ccc(Br)cc1,"inconclusive: 6.31 µM [activator, single point]",–
O=C(CCC1CCCCC1)NCCS(=O)(=O)N1CCN(c2ccc(F)cc2)CC1,"inconclusive: 7.08 µM [inhibitor, partial curve, poor fit]",–
Cn1c(=O)oc2cc(S(=O)(=O)NC(Cc3ccccc3)C(=O)Nc3ccc(F)c(Cl)c3)ccc21 (configuration not stated),"inconclusive: 25.1 µM [activator, single point]",–
CCOC(=O)c1c(-c2ccc(C)cc2)csc1NC(=O)CCN1CCOCC1,"inconclusive: 12.6 µM [inhibitor, partial curve, poor fit]",–
CC1(C)CC(=O)C2=C(C1)N1C(=C(C#N)C2c2ccc(Cl)cc2)N=C(N)c2ccccc21 (configuration not stated),"inconclusive: 23.1 µM [inhibitor, partial curve, poor fit]",–
CCOc1ccc(NC(=O)Cc2ccccc2)c([N+](=O)[O-])c1,–,inactive: 4.19%
CNCc1ccccc1OCC(=O)Nc1ccccc1,–,inactive: 3.37%
Cc1ccc(OCCCCn2c(-c3ccc(Cl)cc3)nc3ccccc3c2=O)cc1,–,inactive: 20.2% [at 46.1 µM]
S=C(Nc1ccc(Cl)cc1Cl)Nn1cnnc1,"inconclusive: 20 µM [activator, single point]",–
CC(C)c1ccc(NC(=O)Cn2nnc(C(=O)NCc3ccc4c(c3)OCO4)c2N)cc1,inactive,–
CC(C)(C)NC(=O)c1cccc(NC(=O)c2ccc(NC(=O)c3ccco3)cc2)c1,"inconclusive: 3.66 µM [inhibitor, full curve, poor fit]",–
c1cc2c(cc1C1=Nn3c(nnc3C3CCCCC3)SC1)OCO2,"inconclusive: 29.1 µM [inhibitor, single point]",–
O=C(CCC(=O)N(CC(=O)NC1CCCCC1)c1ccc(F)cc1)Nc1nccs1,–,inactive: 14.2% [at 46.1 µM]
CCCOc1ccc([C@@H]2C3CN(C(=O)OCC)CC=C3C(C#N)=C(N)C2(C#N)C#N)cc1OC (some centres not stated),active: 10.3 µM,–
Cc1cccc(NC(=O)c2cn(-c3ccccc3)nc2-c2ccccc2)c1C,–,inactive: 2.72% [at 46.1 µM]

# Reformatted: 3 of the compounds above.
SMILES	Potency	activity change, negative = inhibition
CN(C)/C=C/C(=O)c1ccc(N2CCN(c3ncc(C(F)(F)F)cc3Cl)CC2)cc1	inconclusive: 28.2 µM [inhibitor, single point]	–
O=C(CCC1CCCCC1)NCCS(=O)(=O)N1CCN(c2ccc(F)cc2)CC1	inconclusive: 7.08 µM [inhibitor, partial curve, poor fit]	–
O=C(CCC(=O)N(CC(=O)NC1CCCCC1)c1ccc(F)cc1)Nc1nccs1	–	inactive: 14.2% [at 46.1 µM]

# (continued)

SMILES,Potency,"activity change, negative = inhibition"
O=C(NCCC1=CCCCC1)C(=O)NCC(c1ccco1)N1CCN(c2ccccc2F)CC1 (configuration not stated),"inconclusive: 15.8 µM [inhibitor, single point]",–
CC(=O)Oc1c(S(=O)(=O)c2ccccc2)c(C)nn1C(C)(C)C,"inconclusive: 29.1 µM [inhibitor, single point]",–
CCOC(=O)C1(CCOc2ccccc2)CCN(Cc2ccc3c(c2)OCCO3)CC1,"inconclusive: 17.8 µM [inhibitor, partial curve, poor fit]",–
CC(C)Cn1c(SCC(=O)N2CCCc3ccccc32)nc2ccccc2c1=O,"inconclusive: 10 µM [inhibitor, partial curve, poor fit]",–
CCOc1ccc(N2C(=O)NC(=O)/C(=C\c3ccc(N4CCCCC4)o3)C2=O)cc1,–,inactive: -11.7%
Nc1nc(Nc2cccc(F)c2)nc2ccccc12,"inconclusive: 35.5 µM [inhibitor, single point]",–
O=C(Nc1cc(S(=O)(=O)N2CCOCC2)ccc1N1CCOCC1)c1ccc(S(=O)(=O)N2CCCCC2)cc1,–,inactive: -23.5%
Cc1cc(S(=O)(=O)NC2CCN(Cc3ccccc3)CC2)c(C)cc1Cl,"inconclusive: 35.5 µM [inhibitor, single point]",–
CC1Cc2cc(/C(O)=C3/C(=O)C(=O)N(CCN4CCOCC4)C3c3cccc(Cl)c3)ccc2O1 (configuration not stated),–,inactive: 3.17%
COc1ccc(Br)cc1CN(C)CC(=O)NCc1ccc(F)cc1,–,inactive: -18.2%
COc1cccc(NC(=S)NCCC(c2ccccc2)c2ccccc2)c1,"inconclusive: 12.6 µM [inhibitor, single point]",–
COc1cc(C)c(CNc2cc(C)cc(C)c2)cc1C,"inconclusive: 4.11 µM [inhibitor, full curve, poor fit]",–
COCC(C)n1c(C)cc(C(=O)CSc2nnc(N)s2)c1C (configuration not stated),"inconclusive: 35.5 µM [inhibitor, single point]",–
CCSC(=O)N1c2ccc(OC)cc2C=CC1C#N (configuration not stated),"inconclusive: 0.282 µM [inhibitor, full curve, poor fit]",–
Cc1ccc(NC(=O)C2=NNC(=O)CC2)cc1S(=O)(=O)Nc1ccc(SC(F)F)cc1,"inconclusive: 2.82 µM [inhibitor, single point]",–
Cc1ccc(Nc2c3c(nc4ccccc24)CCC3)cc1,"inconclusive: 35.5 µM [inhibitor, single point]",–
CCOc1cccc2sc(N(CCCN(C)C)C(=O)c3ccc(S(=O)(=O)N(C)Cc4ccccc4)cc3)nc12,"inconclusive: 11.2 µM [inhibitor, partial curve, poor fit]",–
C/C(Cn1cnc([N+](=O)[O-])n1)=N/NC(=O)COc1c(Cl)cc(Cl)cc1Cl,–,inactive: 2.14%
O=C(CNC(=O)c1cccc(S(=O)(=O)N2CCc3ccccc32)c1)Nc1ccc(F)c(F)c1F,"inconclusive: 25.1 µM [inhibitor, single point]",–
O=C(c1cc(-c2ccc(Cl)cc2)n[nH]1)N1CCN(S(=O)(=O)c2ccc(Br)s2)CC1,"inconclusive: 1.26 µM [inhibitor, partial curve, poor fit]",–
CCOc1cccc2sc(NC(=O)c3ccc(S(=O)(=O)N4CCCCC4C)cc3)nc12 (configuration not stated),"inconclusive: 35.5 µM [inhibitor, single point]",–
COc1ccc(CNC(=O)C(C)OC(=O)CN2C(=O)COc3ccccc32)cc1 (configuration not stated),–,inactive: -5.81%
O=C(c1ccco1)N1CCCC(N2CCN(c3ccccc3F)CC2)C1 (configuration not stated),"inconclusive: 0.891 µM [inhibitor, partial curve, poor fit]",–

SMILES,Potency,"activity change, negative = inhibition"
COc1ccc(NS(=O)(=O)c2cc(NC(=O)c3cnc(C)cn3)ccc2N2CCCCC2)cc1,"inconclusive: 7.08 µM [inhibitor, partial curve, poor fit]",–
NC(C(=O)O)C(O)c1ccc(O)c(O)c1 (configuration not stated),"inconclusive: 0.004 µM [inhibitor, full curve, poor fit]",–
CC(=O)Nc1ccc(S(=O)(=O)Nc2cccc(-c3cn4c(n3)SCC4)c2)cc1,–,inactive: 15.4%
Cc1ccc(NC(=O)Cc2cc(C(=O)O)c3ccccc3n2)c(C)c1,active: 14.6 µM,–
CCOC(=O)C=C(OC(=O)c1ccc(OC)cc1)c1ccccc1,"inconclusive: 14.1 µM [inhibitor, partial curve, poor fit]",–
c1cc(CSc2nnc(-c3ccc4c(c3)OCO4)o2)ccn1,"inconclusive: 12.6 µM [activator, single point]",–
CCn1c(SCC(=O)Nc2cccc(O)c2)nc2c1c(=O)n(C)c(=O)n2C,"inconclusive: 3.55 µM [inhibitor, single point]",–
O=C(COc1ccc(F)cc1Cl)Nc1ccc(N2CCOCC2)cc1N1CCOCC1,–,inactive: -23.4%
O=C(Oc1ccc(N(Cc2cccs2)C2=NS(=O)(=O)c3ccccc32)cc1)c1ccccc1F,"inconclusive: 20.6 µM [inhibitor, partial curve, poor fit]",–
Cc1ccc(-c2cnc(-c3ccccc3C(=O)O)o2)cc1,"inconclusive: 6.31 µM [activator, single point]",–
CCOC(=O)c1sc2nc(C)nc(NCc3cccnc3)c2c1C,"inconclusive: 6.31 µM [inhibitor, single point]",–
CCN(C(=O)CSc1nc2cc(C(=O)O)ccc2c(=O)n1-c1ccccc1F)C1CCS(=O)(=O)C1 (configuration not stated),–,inactive: 11.6%
CCC(C)(C)n1nnnc1C(c1ccc(F)cc1)N1CCC(C(N)=O)CC1 (configuration not stated),–,inactive: 4.23%
C/C(CC(=O)Nc1ccccc1Br)=N\NC(=O)C(=O)N1CCCC1,–,inactive: 25.1%
Cc1cccc(NC(=O)CN(C)S(=O)(=O)c2ccc3c(c2)c(=O)n(C)c(=O)n3C)c1C,–,inactive: 29.5% [at 46.1 µM]
O=C(Cn1cc(C(=O)c2ccco2)c2ccccc21)NC1CC1,"inconclusive: 0.631 µM [inhibitor, single point]",–
COc1ccc(/C=c2\s/c(=C/C(=O)c3ccc(C)cc3)[nH]c2=O)cc1OC,"inconclusive: 22.4 µM [inhibitor, single point]",–
COc1ccc(NC(=O)c2nn(C34CC5CC(CC(C5)C3)C4)cc2[N+](=O)[O-])cc1,"inconclusive: 32.6 µM [inhibitor, partial curve, poor fit]",–
CN(CC(=O)Nc1ccccc1Cl)C(=O)CSc1nnc(-c2ccco2)o1,–,inactive: 2.16%
COc1ccc(CCNS(=O)(=O)c2c(C)nc3sc(C)cn3c2=O)cc1OC,"inconclusive: 10 µM [activator, partial curve, poor fit]",–
Cc1ccccc1N=Cc1cccc(O)c1O,"inconclusive: 29.1 µM [inhibitor, partial curve, poor fit]",–
